Assay results from PMC5716685.
Results are given in words; binding and its absence hold for the method and conditions named. In cells and extracts the contact can be indirect. Some results given as binding are weak or reduced against the parent protein; the word gives no strength. One block for each molecule: values may come before it.

Chains of the proteins cited; added tags and fusions are not shown. Lines headed by an entry give the natural chain unless they say otherwise; changes in a name come on top. Residues count along the entry.
UniProt O95863: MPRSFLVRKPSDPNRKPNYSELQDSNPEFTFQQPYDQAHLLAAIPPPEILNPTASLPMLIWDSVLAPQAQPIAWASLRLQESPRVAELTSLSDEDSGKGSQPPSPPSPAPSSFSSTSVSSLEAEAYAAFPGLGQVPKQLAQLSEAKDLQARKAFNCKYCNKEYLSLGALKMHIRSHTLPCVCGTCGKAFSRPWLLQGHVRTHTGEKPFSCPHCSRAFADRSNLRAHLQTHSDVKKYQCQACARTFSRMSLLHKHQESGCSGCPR
UniProt P63165, residues 1-97: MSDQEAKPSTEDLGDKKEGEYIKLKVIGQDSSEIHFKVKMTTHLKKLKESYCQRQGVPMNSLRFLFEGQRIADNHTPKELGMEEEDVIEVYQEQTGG
UniProt P05412: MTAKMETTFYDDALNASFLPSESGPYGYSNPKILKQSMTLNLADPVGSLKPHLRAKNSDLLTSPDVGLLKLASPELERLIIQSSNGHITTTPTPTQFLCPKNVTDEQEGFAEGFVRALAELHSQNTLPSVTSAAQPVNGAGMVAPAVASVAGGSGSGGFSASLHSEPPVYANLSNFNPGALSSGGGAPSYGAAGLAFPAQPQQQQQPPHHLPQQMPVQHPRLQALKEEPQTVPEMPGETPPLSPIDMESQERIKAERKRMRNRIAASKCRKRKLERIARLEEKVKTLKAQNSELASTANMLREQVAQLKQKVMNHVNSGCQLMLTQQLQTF

Legend:
[1] = biological target: Snail1 (endogenous) (human (endogenous in PC-3U, MDA-MB-231, A549)) (UniProt O95863); experiment: proximity ligation; endogenous proteins in A549 cells, untreated or treated with TGFβ (supplementary figure)
[2] = biological target: Snail1 (endogenous) (human (endogenous in PC-3U, MDA-MB-231, A549)) (UniProt O95863); experiment: proximity ligation; endogenous proteins in MDA-MB-231 cells, untreated or treated with TGFβ (supplementary figures)
[3] = biological target: HA-Snail1 (wild type) (UniProt O95863); experiment: proximity ligation; PC-3U cells transiently transfected with HA-WT-Snail1 or Mutant-HA-Snail1, treated with TGFβ; anti-rabbit Sumo1 and anti-mouse HA antibodies, PLA probes
[4] = biological target: K234R mutant HA-Snail1 (UniProt O95863); experiment: as above
[5] = biological target: Snail1 (endogenous) (human (endogenous in PC-3U, MDA-MB-231, A549)) (UniProt O95863); experiment: proximity ligation; endogenous proteins in fixed, permeabilised PC-3U cells, untreated or treated with TGFβ; primary antibodies from different species, PLA probes; signals counted with Blob finder
[6] = biological target: Snail1 (endogenous) (human (endogenous in PC-3U, MDA-MB-231, A549)) (UniProt O95863); experiment: co-IP; endogenous proteins; PC-3U cells treated with TGFβ (10 ng/ml) for the indicated times, lysed in RIPA buffer; primary antibody overnight, Protein G Sepharose at 4°C, three washes with RIPA; immunoblot
[7] = biological target: Snail1 (endogenous) (human (endogenous in PC-3U, MDA-MB-231, A549)) (UniProt O95863); experiment: proximity ligation; endogenous proteins in fixed, permeabilised PC-3U cells, untreated or treated with TGFβ; primary antibodies from different species, PLA probes; signals counted with Blob finder; remark: listed apart in the source
[8] = biological target: T1, TGFβ receptor I (TβRI), endogenous (human (endogenous in PC-3U, MDA-MB-231)) (UniProt P36897); experiment: as above
T1 sequence: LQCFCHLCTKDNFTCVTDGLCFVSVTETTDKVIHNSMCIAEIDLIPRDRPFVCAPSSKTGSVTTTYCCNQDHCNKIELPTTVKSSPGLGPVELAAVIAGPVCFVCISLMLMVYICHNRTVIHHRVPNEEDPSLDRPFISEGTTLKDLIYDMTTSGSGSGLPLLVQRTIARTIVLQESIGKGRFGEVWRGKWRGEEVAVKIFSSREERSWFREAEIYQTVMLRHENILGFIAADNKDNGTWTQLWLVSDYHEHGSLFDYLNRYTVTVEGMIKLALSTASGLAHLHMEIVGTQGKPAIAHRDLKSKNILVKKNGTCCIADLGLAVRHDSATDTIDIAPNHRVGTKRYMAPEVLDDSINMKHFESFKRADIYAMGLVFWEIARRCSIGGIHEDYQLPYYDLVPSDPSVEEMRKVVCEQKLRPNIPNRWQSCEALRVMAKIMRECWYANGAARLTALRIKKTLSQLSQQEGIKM

[9] = biological target: Snail1 (endogenous) (human (endogenous in PC-3U, MDA-MB-231, A549)) (UniProt O95863); experiment: co-IP; endogenous proteins; PC-3U cells treated with TGFβ (10 ng/ml) for the indicated times, lysed in RIPA buffer; primary antibody overnight, Protein G Sepharose at 4°C, three washes with RIPA; immunoblot; remark: listed apart in the source
[10] = biological target: T1, TGFβ receptor I (TβRI), endogenous (human (endogenous in PC-3U, MDA-MB-231)); experiment: as above
[11] = biological target: Snail1 (endogenous) (human (endogenous in PC-3U, MDA-MB-231, A549)) (UniProt O95863); experiment: proximity ligation; endogenous proteins in MDA-MB-231 cells, untreated or treated with TGFβ (supplementary figures); remark: listed apart in the source

binding [1]: binds
binding [2]: binds
binding [3]: binds
binding [4]: no binding
binding [5]: binds
Molecule: Sumo1 (endogenous) (from UniProt P63165 1-97)

binding [5]: binds
binding [6]: binds
Molecule: c-Jun (endogenous) (from UniProt P05412 1-331)

binding [7]: binds
binding [8]: binds
binding [9]: binds
binding [10]: binds
B1: Hairy and enhancer of split-1 (Hes1), endogenous (protein, UniProt Q14469 1-280)
chain: MPADIMEKNSSSPVAATPASVNTTPDKPKTASEHRKSSKPIMEKRRRARINESLSQLKTLILDALKKDSSRHSKLEKADILEMTVKHLRNLQRAQMTAALSTDPSVLGKYRAGFSECMNEVTRFLSTCEGVNTEVRTRLLGHLANCMTQINAMTYPGQPHPALQAPPPPPPGPGGPQHAPFAPPPPLVPIPGGAAPPPGGAPCKLGSQAGEAAKVFGGFQVVPAPDGQFAFLIPNGAFAHSGPVIPVYTSNSGTSVGPNAVSPSSGPSLTADSMWRPWRN

binding [11]: binds
binding [7]: binds
B2: TGFβ receptor I (TβRI), endogenous (receptor, UniProt P36897 34-503)
chain: LQCFCHLCTKDNFTCVTDGLCFVSVTETTDKVIHNSMCIAEIDLIPRDRPFVCAPSSKTGSVTTTYCCNQDHCNKIELPTTVKSSPGLGPVELAAVIAGPVCFVCISLMLMVYICHNRTVIHHRVPNEEDPSLDRPFISEGTTLKDLIYDMTTSGSGSGLPLLVQRTIARTIVLQESIGKGRFGEVWRGKWRGEEVAVKIFSSREERSWFREAEIYQTVMLRHENILGFIAADNKDNGTWTQLWLVSDYHEHGSLFDYLNRYTVTVEGMIKLALSTASGLAHLHMEIVGTQGKPAIAHRDLKSKNILVKKNGTCCIADLGLAVRHDSATDTIDIAPNHRVGTKRYMAPEVLDDSINMKHFESFKRADIYAMGLVFWEIARRCSIGGIHEDYQLPYYDLVPSDPSVEEMRKVVCEQKLRPNIPNRWQSCEALRVMAKIMRECWYANGAARLTALRIKKTLSQLSQQEGIKM
